Assay results: PMC10404246
No constants are given. Whether binding was seen depends on the method and setting. Binding seen in cells or lysates may run through a third protein. Some entries that bind do so weakly or less than the wild type.

Amino acid sequences for entries named in this document (tags omitted).
UniProt P15924: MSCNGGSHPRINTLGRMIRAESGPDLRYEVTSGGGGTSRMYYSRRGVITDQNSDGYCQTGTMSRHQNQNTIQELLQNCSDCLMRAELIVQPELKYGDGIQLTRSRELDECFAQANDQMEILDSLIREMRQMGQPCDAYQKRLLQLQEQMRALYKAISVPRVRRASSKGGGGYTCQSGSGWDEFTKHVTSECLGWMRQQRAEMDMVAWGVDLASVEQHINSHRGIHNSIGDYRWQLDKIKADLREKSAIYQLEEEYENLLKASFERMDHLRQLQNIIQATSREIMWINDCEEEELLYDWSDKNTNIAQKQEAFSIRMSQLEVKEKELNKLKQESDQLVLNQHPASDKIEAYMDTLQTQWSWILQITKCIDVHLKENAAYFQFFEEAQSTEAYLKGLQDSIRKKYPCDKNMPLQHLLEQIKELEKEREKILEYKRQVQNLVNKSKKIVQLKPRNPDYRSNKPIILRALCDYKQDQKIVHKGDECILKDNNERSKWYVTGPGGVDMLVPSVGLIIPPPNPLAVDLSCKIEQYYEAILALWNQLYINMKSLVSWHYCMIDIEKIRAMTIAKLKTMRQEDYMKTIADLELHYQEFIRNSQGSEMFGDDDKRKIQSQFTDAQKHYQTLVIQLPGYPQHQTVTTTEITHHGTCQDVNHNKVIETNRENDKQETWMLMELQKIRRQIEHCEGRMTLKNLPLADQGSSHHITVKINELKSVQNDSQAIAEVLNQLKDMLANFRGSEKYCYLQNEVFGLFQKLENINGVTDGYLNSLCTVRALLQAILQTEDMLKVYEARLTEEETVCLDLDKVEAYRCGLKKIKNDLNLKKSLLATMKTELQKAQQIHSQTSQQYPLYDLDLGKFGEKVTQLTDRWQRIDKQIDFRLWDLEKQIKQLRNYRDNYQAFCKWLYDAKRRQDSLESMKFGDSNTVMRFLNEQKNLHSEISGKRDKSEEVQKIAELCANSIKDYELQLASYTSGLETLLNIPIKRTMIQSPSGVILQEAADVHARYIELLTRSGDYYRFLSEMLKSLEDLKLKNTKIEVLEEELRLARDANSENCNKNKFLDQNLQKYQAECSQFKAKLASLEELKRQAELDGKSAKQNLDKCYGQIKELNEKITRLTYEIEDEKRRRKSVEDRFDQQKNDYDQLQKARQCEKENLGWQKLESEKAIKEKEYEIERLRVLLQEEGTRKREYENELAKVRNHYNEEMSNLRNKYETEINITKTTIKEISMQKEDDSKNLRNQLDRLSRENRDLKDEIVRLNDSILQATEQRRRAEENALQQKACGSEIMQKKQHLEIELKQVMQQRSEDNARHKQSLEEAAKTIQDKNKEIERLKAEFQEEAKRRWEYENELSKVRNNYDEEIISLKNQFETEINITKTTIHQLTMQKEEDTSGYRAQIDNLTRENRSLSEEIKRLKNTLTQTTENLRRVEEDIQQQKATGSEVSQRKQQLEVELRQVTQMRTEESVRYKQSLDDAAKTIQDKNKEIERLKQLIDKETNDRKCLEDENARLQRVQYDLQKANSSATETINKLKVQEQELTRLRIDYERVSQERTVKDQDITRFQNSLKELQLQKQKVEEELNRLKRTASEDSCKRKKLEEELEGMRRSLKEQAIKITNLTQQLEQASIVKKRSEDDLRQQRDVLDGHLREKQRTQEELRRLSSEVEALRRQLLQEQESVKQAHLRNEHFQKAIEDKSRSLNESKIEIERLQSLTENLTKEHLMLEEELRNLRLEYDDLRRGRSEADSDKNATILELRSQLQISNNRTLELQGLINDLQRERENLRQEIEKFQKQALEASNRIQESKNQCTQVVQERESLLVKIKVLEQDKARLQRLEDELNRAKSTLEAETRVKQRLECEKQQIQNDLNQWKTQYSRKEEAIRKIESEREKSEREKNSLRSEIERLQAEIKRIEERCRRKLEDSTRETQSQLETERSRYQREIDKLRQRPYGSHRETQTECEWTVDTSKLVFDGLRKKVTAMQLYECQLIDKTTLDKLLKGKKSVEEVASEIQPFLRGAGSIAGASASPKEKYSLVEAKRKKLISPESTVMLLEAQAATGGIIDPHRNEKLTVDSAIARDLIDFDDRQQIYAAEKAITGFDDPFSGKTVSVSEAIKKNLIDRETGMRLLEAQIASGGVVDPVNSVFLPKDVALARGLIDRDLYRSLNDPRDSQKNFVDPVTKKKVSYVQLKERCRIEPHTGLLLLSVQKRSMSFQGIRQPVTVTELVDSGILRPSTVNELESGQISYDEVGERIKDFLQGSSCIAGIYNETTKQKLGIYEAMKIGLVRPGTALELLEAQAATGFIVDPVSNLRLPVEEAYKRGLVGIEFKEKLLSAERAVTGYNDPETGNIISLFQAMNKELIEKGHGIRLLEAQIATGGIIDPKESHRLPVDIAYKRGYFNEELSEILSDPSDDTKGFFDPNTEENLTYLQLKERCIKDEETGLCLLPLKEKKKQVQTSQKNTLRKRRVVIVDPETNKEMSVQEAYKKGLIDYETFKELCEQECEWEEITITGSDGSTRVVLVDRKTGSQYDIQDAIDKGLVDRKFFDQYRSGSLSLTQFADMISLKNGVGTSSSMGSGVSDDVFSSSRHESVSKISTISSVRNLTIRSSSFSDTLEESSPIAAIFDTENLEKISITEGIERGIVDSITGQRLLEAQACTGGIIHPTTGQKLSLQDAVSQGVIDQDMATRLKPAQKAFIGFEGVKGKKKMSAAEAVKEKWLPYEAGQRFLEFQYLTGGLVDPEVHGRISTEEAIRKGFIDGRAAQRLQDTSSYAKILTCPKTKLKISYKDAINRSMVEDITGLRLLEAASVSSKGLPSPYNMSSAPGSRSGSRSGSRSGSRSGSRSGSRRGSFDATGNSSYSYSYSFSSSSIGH

Key:
[1] = target: desmoplakin (human (endogenous in SCC9, NHEK and human skin)), P15924; assay: co-IP; endogenous DP precipitated with antibodies to DP's C-terminus or N-terminus from SCC9 and NHEK lysates (NP40 buffer: 10 mM Tris-HCl pH 8, 100 mM NaCl, 0.2% NP40, 10% glycerol), overnight at 4 °C; blotted for Dsg3 or B55α; IgG control; settings: remark: other sources report otherwise
[2] = target: desmoplakin (human (endogenous in SCC9, NHEK and human skin)) (UniProt P15924); assay: proximity ligation; fixed SCC9 cells with antibodies to B55α and DP; cells transfected with siRNA against Scramble control, B55α or DP
[3] = target: desmoplakin (human (endogenous in SCC9, NHEK and human skin)) (UniProt P15924); assay: proximity ligation; fixed human skin samples with antibodies to B55α and DP, compared with B55α antibody and IgG
[4] = target: desmoplakin (human (endogenous in SCC9, NHEK and human skin)) (UniProt P15924); assay: co-IP; endogenous DP precipitated with antibodies to DP's C-terminus or N-terminus from SCC9 and NHEK lysates (NP40 buffer: 10 mM Tris-HCl pH 8, 100 mM NaCl, 0.2% NP40, 10% glycerol), overnight at 4 °C; blotted for Dsg3 or B55α; IgG control
[5] = target: T1, PP2A regulatory subunit B55α (human (endogenous in SCC9, NHEK and human skin)) (UniProt P63151); assay: co-IP; endogenous B55α precipitated with anti-B55α antibody conjugated to agarose from SCC9 and NHEK lysates (NP40 buffer), overnight at 4 °C; blotted for DP or Dsg3
T1 sequence: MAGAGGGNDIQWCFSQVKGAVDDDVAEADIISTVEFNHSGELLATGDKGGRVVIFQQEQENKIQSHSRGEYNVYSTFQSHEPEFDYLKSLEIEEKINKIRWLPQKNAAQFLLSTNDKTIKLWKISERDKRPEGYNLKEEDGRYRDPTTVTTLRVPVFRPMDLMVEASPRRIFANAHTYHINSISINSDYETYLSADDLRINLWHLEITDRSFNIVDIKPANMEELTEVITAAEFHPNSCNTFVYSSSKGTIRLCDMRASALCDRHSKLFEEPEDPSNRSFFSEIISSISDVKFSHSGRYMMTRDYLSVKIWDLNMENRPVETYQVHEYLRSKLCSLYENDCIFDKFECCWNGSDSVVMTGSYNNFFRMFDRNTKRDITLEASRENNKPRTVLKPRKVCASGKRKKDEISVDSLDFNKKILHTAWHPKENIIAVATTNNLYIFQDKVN

B1: desmoglein 3, P32926 50-999 (protein)
chain: EWVKFAKPCREGEDNSKRNPIAKITSDYQATQKITYRISGVGIDQPPFGIFVVDKNTGDINITAIVDREETPSFLITCRALNAQGLDVEKPLILTVKILDINDNPPVFSQQIFMGEIEENSASNSLVMILNATDADEPNHLNSKIAFKIVSQEPAGTPMFLLSRNTGEVRTLTNSLDREQASSYRLVVSGADKDGEGLSTQCECNIKVKDVNDNFPMFRDSQYSARIEENILSSELLRFQVTDLDEEYTDNWLAVYFFTSGNEGNWFEIQTDPRTNEGILKVVKALDYEQLQSVKLSIAVKNKAEFHQSVISRYRVQSTPVTIQVINVREGIAFRPASKTFTVQKGISSKKLVDYILGTYQAIDEDTNKAASNVKYVMGRNDGGYLMIDSKTAEIKFVKNMNRDSTFIVNKTITAEVLAIDEYTGKTSTGTVYVRVPDFNDNCPTAVLEKDAVCSSSPSVVVSARTLNNRYTGPYTFALEDQPVKLPAVWSITTLNATSALLRAQEQIPPGVYHISLVLTDSQNNRCEMPRSLTLEVCQCDNRGICGTSYPTTSPGTRYGRPHSGRLGPAAIGLLLLGLLLLLLAPLLLLTCDCGAGSTGGVTGGFIPVPDGSEGTIHQWGIEGAHPEDKEITNICVPPVTANGADFMESSEVCTNTYARGTAVEGTSGMEMTTKLGAATESGGAAGFATGTVSGAASGFGAATGVGICSSGQSGTMRTRHSTGGTNKDYADGAISMNFLDSYFSQKAFACAEEDDGQEANDCLLIYDNEGADATGSPVGSVGCCSFIADDLDDSFLDSLGPKFKKLAEISLGVDGEGKEVQPPSKDSGYGIESCGHPIEVQQTGFVKCQTLSGSQGASALSTSGSVQPAVSIPDPLQHGNYLVTETYSASGSLVQPSTAGFDPLLTQNVIVTERVICPISSVPGNLAGPTQLRGSHTMLCTEDPCSRLI
In the case of B1, the binding [1] is reported as “binds”.

B2: PP2A regulatory subunit B55α (protein, UniProt P63151 1-447)
chain: T1 sequence
For B2, the binding [2] was “binds”, the binding [3] was “binds” and the binding [4] was “binds”.

B3: desmoglein 3 (protein, UniProt P32926 50-999)
chain: B1 chain
B3 was tested, and the binding [5] was “no binding”.
